Laboratory results as given in publication PMC10899377.
These are yes or no findings as the source states them, for the method shown. In cells and extracts the contact can be indirect. Binding calls can cover weak binding; strength is not graded here. Tags and fused reporters may be left off the sequences shown.

Protein sequences, listed by entry. Tags and fused reporters are not part of them. Lines headed by an entry give the natural chain unless they say otherwise; changes in a name come on top.
UniProt Q9UKU9: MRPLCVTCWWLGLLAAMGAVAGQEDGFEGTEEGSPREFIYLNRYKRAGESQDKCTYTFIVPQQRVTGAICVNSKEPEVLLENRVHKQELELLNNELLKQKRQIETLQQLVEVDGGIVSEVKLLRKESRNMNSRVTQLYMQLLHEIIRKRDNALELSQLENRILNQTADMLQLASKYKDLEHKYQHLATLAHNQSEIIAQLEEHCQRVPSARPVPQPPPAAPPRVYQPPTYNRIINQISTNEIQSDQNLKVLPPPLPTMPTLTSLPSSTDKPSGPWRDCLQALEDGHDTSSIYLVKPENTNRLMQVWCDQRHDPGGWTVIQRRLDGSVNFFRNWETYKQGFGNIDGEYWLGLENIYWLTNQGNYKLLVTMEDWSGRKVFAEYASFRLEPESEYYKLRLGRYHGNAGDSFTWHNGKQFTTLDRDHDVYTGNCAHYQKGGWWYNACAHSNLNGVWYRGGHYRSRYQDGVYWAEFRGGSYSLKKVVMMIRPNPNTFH

Target: T1, HA-VPS33B-WT (full-length vacuolar protein sorting 33b) (UniProt Q9H267)
T1 sequence: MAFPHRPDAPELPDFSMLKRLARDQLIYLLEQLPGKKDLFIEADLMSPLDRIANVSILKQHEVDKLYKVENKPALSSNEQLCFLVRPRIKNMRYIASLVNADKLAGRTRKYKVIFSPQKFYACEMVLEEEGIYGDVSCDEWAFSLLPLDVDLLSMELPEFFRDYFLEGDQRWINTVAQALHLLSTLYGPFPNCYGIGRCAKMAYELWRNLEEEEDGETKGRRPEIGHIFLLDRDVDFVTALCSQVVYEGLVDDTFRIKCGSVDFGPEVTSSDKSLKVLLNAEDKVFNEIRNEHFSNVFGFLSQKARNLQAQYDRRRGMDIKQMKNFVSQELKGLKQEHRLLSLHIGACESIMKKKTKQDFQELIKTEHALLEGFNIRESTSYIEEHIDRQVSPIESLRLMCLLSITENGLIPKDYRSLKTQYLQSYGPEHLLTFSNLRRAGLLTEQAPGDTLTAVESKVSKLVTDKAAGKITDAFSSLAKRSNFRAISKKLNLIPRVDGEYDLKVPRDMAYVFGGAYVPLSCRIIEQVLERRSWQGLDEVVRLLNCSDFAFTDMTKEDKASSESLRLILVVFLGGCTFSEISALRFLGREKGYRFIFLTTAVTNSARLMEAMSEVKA
Assay: co-IP; HEK293T cells co-transfected with HA-VPS33B and Flag-ANGPTL2 plasmids; Pierce IP lysis buffer; lysates immunoprecipitated with anti-HA (plus Protein A/G agarose) or anti-Flag M2 beads overnight at 4 °C; beads washed ten times; Western blot

binding | Substance
binds | Flag-ANGPTL2-C (C-terminal region, aa247-aa471) (from UniProt Q9UKU9) (domain or fragment)
no binding | Flag-ANGPTL2-N (N-terminal region, aa1-aa246) (from UniProt Q9UKU9) (domain or fragment)
